Laboratory results as given in PMC3496474.

Legend:
[1] = molecular target: T1, IRS2 (CD1 mouse kidney) (mouse (endogenous in CD1 mouse kidney)) (UniProt P81122); assay: co-IP; kidney tissue homogenised in CelLytic M, diluted in PBS, about 1.5 mg total protein with 30 ug agarose-conjugated anti-IRS2 antibody, overnight at 8 °C, one wash in ice-cold PBS, elution in 0.1 M glycine; eluates assayed for Rictor and IGF1R by ELISA, result as Rictor::IGF1R ratio (AU); animals: Dahl rats on high-salt diet with saline or nephrilin, CD1 mice sham or rhabdomyolysis (glycerol) with saline or nephrilin
T1 sequence: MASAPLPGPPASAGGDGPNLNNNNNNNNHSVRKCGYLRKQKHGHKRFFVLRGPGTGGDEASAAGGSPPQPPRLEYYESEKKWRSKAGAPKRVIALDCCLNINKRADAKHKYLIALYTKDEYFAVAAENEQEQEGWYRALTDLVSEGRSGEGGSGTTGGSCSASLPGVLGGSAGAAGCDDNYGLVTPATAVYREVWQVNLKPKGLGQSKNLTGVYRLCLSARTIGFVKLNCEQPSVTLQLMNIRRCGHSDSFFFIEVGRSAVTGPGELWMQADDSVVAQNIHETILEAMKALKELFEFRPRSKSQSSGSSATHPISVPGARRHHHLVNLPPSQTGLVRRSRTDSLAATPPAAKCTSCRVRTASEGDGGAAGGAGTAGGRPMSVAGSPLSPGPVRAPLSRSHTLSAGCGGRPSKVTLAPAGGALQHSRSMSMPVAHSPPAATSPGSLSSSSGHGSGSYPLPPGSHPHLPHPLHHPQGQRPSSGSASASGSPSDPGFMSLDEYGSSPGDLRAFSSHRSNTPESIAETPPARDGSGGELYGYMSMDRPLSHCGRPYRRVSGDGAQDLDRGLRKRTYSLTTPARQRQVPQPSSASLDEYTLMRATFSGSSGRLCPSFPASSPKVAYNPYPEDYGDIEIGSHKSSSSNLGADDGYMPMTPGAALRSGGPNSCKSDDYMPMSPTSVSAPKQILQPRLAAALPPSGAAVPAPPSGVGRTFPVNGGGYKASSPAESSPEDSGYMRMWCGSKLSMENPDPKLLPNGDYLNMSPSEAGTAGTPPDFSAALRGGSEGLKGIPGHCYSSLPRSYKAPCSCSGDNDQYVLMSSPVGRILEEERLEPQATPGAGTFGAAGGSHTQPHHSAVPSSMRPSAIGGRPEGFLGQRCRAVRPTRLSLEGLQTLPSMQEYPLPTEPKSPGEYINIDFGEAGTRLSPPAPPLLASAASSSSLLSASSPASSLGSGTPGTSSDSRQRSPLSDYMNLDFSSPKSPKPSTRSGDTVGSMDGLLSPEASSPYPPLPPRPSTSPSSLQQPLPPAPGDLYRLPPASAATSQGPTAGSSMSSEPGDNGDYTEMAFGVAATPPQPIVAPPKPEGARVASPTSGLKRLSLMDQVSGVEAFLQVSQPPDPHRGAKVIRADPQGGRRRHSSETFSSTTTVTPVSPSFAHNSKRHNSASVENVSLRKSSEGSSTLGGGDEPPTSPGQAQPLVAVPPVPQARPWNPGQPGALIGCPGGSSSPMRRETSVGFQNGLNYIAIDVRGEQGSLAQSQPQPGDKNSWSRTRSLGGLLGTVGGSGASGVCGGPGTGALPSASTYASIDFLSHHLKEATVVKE

[2] = molecular target: T2, IRS2 (Dahl rat kidney) (rat (endogenous in Dahl rat kidney)) (UniProt F1MAL5); assay: as above
T2 sequence: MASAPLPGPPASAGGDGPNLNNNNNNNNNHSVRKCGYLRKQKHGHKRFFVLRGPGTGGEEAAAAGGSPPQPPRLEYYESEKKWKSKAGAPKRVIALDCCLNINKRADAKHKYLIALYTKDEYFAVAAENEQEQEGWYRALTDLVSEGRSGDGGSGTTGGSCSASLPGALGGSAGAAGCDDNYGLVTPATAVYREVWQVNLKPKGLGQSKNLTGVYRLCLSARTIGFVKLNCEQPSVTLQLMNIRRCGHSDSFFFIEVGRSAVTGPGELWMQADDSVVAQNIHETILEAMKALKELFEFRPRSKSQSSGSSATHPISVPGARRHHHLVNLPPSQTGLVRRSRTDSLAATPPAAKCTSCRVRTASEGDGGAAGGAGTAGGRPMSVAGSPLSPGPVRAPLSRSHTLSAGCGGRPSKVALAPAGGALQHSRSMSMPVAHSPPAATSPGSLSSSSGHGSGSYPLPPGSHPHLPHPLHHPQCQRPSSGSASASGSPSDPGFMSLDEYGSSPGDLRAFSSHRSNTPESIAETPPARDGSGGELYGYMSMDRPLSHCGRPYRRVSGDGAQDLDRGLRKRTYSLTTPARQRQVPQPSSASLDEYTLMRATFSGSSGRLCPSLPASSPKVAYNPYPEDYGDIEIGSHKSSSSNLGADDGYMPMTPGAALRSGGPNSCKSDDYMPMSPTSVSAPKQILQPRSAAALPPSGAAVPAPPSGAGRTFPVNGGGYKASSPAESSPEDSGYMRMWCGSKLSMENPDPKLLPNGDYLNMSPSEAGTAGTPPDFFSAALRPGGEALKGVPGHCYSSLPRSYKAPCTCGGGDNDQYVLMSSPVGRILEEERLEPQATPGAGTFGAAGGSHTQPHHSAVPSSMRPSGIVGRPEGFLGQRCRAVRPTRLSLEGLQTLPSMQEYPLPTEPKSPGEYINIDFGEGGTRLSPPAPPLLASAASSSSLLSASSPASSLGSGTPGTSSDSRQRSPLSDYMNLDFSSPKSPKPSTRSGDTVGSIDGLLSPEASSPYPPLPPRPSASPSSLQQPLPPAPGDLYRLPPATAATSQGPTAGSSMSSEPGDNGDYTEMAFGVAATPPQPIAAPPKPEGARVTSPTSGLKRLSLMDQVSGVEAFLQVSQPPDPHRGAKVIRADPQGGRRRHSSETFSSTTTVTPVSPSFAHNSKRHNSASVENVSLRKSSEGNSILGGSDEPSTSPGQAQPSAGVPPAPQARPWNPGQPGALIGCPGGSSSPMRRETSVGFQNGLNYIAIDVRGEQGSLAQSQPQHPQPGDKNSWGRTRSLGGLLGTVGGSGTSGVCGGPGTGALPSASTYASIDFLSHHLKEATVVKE

| Substance | binding [1] | binding [2] |
| --- | --- | --- |
| IGF1R (CD1 mouse kidney) (receptor) | binds |  |
| Rictor (Dahl rat kidney) |  | binds |
| IGF1R (Dahl rat kidney) (receptor) |  | binds |

These are yes or no findings as the source states them, for the method shown. Binding seen in cells or lysates may run through a third protein. Binding can be weak; no strength is given.
